Assay results published in patent US7625870B2CJSC, priority 2004, dated 2009).

Experiment: general procedure: solution-phase peptide synthesis; N,N'-dicyclohexylcarbodiimide / N-oxybenzotriazol

Row | Substance | step yield (coupling step) | step yield (late stage modification step)
1 | Cbz-AE(OBn)D(OBn)L-OBn | 55% | 
2 | H-Ala-Glu-Asp-Leu (SEQ ID NO:1)-OH |  | 79%

* marks the point of attachment. Cbz = O=C(OCc1ccccc1)*; OBn = c1ccc(CO*)cc1
